According to PubChem BioAssay AID504834 (National Center for Advancing Translational Sciences (NCATS), 2011):
In all, about 320,000 compounds went through this assay and about 22,000 (6.9%) were called active. Inconclusive results, whose numbers are uncertain, are shown with a selection of clear calls. Calls follow the shape of the dose curve; as a rule, active = well fitted inhibition curve with a large enough effect; inconclusive = small, poorly fitted or top-dose-only effect, or another doubt; inactive = no such curve, though single readings can be large or run the other way. Potencies of inconclusive entries are doubtful fits and often do not repeat.

Test: Primary qHTS for delayed death inhibitors of the malarial parasite plastid, 96 hour incubation
Details: P. falciparum luciferase reporter growth; series mostly up to 28.7 µM; activity change, negative = inhibition: at the top concentration
How it was run: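 Parasite growth measured via integrated firefly luciferase reporter in P. falciparum. Infected erythrocytes at 2% hematocrit, 0.05% parasitemia final were treated 96 hours at 37 C under 5% CO2, and luminescence was read.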
% is scaled to controls: 0 for no effect and ±100 for the full control effect; potency is read from the fitted curve at half-maximal effect.

Row | Structure (SMILES) | Potency | activity change, negative = inhibition
1 | Cn1c(=O)c2[nH]c(=O)cnc2n(C)c1=S | inconclusive: 2.62 µM [inhibitor, full curve, poor fit] | –
2 | CC(C)C(c1nnnn1C1CCCC1)N1CCCCC1 (stereo not drawn) | active: 14.7 µM | –
3 | CC(C)C(=O)Nc1ccc2c(c1)Cc1cc(NC(=O)C(C)C)ccc1-2 | inconclusive: 18.5 µM [inhibitor, single point] | –
4 | CC1CN(S(=O)(=O)c2ccccc2)CC(C)O1 (stereo not drawn) | inconclusive: 18.5 µM [inhibitor, single point] | –
5 | Cc1cc2c(cc1C)CSC(c1ccccc1OC(=O)C(C)C)SC2 | inconclusive: 10.4 µM [inhibitor, single point] | –
6 | NC(=O)c1ccc(NC(=O)Cc2ccc(S(=O)(=O)N3CCCCC3)cc2)cc1 | inconclusive: 5.22 µM [inhibitor, partial curve] | –
7 | COc1ccc(CCNc2nc(Cl)nc(NC(C)(C)CO)n2)cc1OC | inconclusive: 18.5 µM [inhibitor, single point] | –
8 | Cc1ccc(NS(=O)(=O)c2ccc(-c3ccc(=O)[nH]n3)o2)cc1Cl | active: 9.28 µM | –
9 | CC(=O)c1cc(-c2ccccc2)n(CC(=O)N2CCCC2)c1C | inconclusive: 18.5 µM [inhibitor, single point] | –
10 | Cc1ccc(CNC(=O)[C@H](C)NC(=O)C2CCN(C(=O)[C@@H]3CCCN3C(=O)OC(C)(C)C)CC2)cc1 | inconclusive: 4.65 µM [inhibitor, partial curve, poor fit] | –
11 | COc1ccc(-n2nc(C(=O)NCC(=O)NCC3COc4ccccc4O3)c3ccccc3c2=O)cc1OC (stereo not drawn) | inconclusive: 0.329 µM [inhibitor, partial curve, poor fit] | –
12 | COc1ccccc1NS(=O)(=O)c1ccc(Cl)c(NC(=O)C(C)N2C(=O)c3ccccc3C2=O)c1 (stereo not drawn) | inconclusive: 16.5 µM [inhibitor, single point] | –
13 | CCSc1ccccc1C(=O)NC1CCCCC1 | – | inactive: -4.78%
14 | CS(=O)(=O)c1ccccc1C(=O)N(CCc1ccccc1)Cc1ccccc1 | inconclusive: 7.38 µM [inhibitor, partial curve] | –
15 | COc1ccccc1N1C(=O)c2ccc(C(=O)Nc3nccs3)cc2C1=O | – | inactive: 304%
16 | COc1ccc(/C=C(\NC(=O)c2ccc(OCC(C)C)cc2)C(=O)OCc2ccco2)cc1 | inconclusive: 10.4 µM [inhibitor, single point] | –
17 | CCOC(=O)c1cnc(NCc2ccccc2)nc1C | – | inactive: 27.7%
18 | COc1ccc2[nH]c(=O)c(CN(CCc3cccc(C)c3)C(C)=O)cc2c1 | inconclusive: 5.22 µM [inhibitor, partial curve, poor fit] | –
19 | O=C(O)Cc1sc(-c2ccccc2Cl)nc1-c1ccccc1 | – | inactive: -6.08%
20 | O=C(OC1CCOC1=O)c1ccc2ncsc2c1 (stereo not drawn) | – | inactive: 0.398%
21 | CN(CC(=O)Nc1ccccc1)CC(=O)Nc1ccc(F)cc1 | – | inactive: 37.4%
22 | Cc1ccc(C(=O)OCC(=O)Nc2ccc(F)c(Cl)c2)o1 | – | inactive: 27.6%
23 | CC1CN(C(=O)c2ccn(C)n2)CC(C)O1 (stereo not drawn) | – | inactive: 36.7%
24 | COc1cccc(/C=N/n2cnc3ccccc32)c1OC | – | inactive: 126%
25 | O=C(CCC1CCCN(Cc2ccncc2)C1)NCc1ccc(F)c(F)c1 (stereo not drawn) | inconclusive: 18.5 µM [inhibitor, single point] | –

Row | Structure (SMILES) | Potency | activity change, negative = inhibition
26 | CCc1ccc(OCC(=O)NNC(=O)Cc2ccc(S(=O)(=O)N3CCOCC3)s2)cc1 | – | inactive: -17.6%
27 | Cc1ccc(C(=O)c2cn[nH]c2-c2cc(Cl)ccc2O)cc1 | inconclusive: 1.65 µM [inhibitor, full curve, poor fit] | –
28 | COc1ccc(C(=O)NCCN=C2NS(=O)(=O)c3ccccc32)cc1 | inconclusive: 13.1 µM [inhibitor, single point] | –
29 | CCC(NC(=O)c1ccncc1)c1ccccc1 (stereo not drawn) | active: 14.7 µM | –
30 | CC(C)CNC(=O)c1ccccc1NC(=O)c1ccc(CSc2ccccc2)cc1 | active: 10.4 µM | –
31 | O=C(/C=C/c1cccc(O)c1)c1cccnc1 | – | inactive: -17.5%
32 | NNc1ncnc2scc(-c3ccc(Cl)cc3)c12 | inconclusive: 13.1 µM [inhibitor, single point] | –
33 | O=C(c1ccc2nc(Cc3ccccc3F)oc2c1)N1CCCC1 | – | inactive: 19.4%
34 | Cc1cccc2sc(NC(=O)C3CC3)nc12 | – | inactive: 32.3%
35 | CN(c1ccc(C(=O)Nc2ccccc2C(F)(F)F)cc1)S(C)(=O)=O | inconclusive: 18.5 µM [inhibitor, single point] | –
36 | Cc1cccc(NC(=O)c2ccc(C3SCC(=O)N3CCc3ccccc3)cc2)c1C (stereo not drawn) | active: 8.28 µM | –
37 | O=C(Nc1ccccc1O)c1ccc([N+](=O)[O-])cc1 | inconclusive: 0.415 µM [inhibitor, partial curve, poor fit] | –
38 | Cc1cccc(N(C)S(=O)(=O)c2c(C)[nH]c(C)c2C(=O)N2CCCC2)c1 | – | inactive: 0.23%
39 | Cc1noc(C)c1S(=O)(=O)N1CCCC(C(=O)Nc2ccc(Cl)cn2)C1 (stereo not drawn) | inconclusive: 18.5 µM [inhibitor, partial curve, poor fit] | –
40 | O=c1cnnc(N/N=C/c2c[nH]c3ccccc23)[nH]1 | inconclusive: 2.62 µM [inhibitor, full curve, poor fit] | –
41 | COCCn1c(=NC(=O)c2ccc(S(=O)(=O)N3CCOCC3)cc2)sc2cc(S(N)(=O)=O)ccc21 | active: 8.28 µM | –
42 | CC(=O)[C@@]1(O)CC[C@H]2[C@@H]3C[C@H](C)C4=CC(=O)CC[C@]4(C)[C@H]3CC[C@@]21C | inconclusive: 11.7 µM [inhibitor, partial curve, poor fit] | –
43 | Cc1cc(C(=O)OCC(=O)N2CC(=O)Nc3ccccc32)no1 | inconclusive: 0.294 µM [inhibitor, full curve, poor fit] | –
44 | COc1cccc(-c2ncc3ccccc3c2COC(=O)N2CCOCC2)c1 | inconclusive: 2.62 µM [inhibitor, single point] | –
45 | CCc1ccc(Nc2nc(C)cc(C)c2C(N)=O)cc1 | – | inactive: -6.75%
46 | Cc1ccc(NC(=O)C2=NNC(=O)CC2)cc1F | – | inactive: 53.7%
47 | COc1ccc(OC)c(/C=N/NC(=O)CCc2c(C)n[nH]c2C)c1 | – | inactive: 58%
48 | Cc1ccc(NC(=O)Cc2nc(COC(=O)Cc3cccc(C(F)(F)F)c3)cs2)cc1 | – | inactive: 31.3%
49 | C=CCNC(=O)C1CC1(c1ccc(C)cc1)c1ccc(C)cc1 (stereo not drawn) | – | inactive: 1.77%
50 | COC(=O)C1CCN(C(=O)C2CCCCC2)CC1 | inconclusive: 3.7 µM [inhibitor, full curve, poor fit] | –

Row | Structure (SMILES) | Potency | activity change, negative = inhibition
51 | O=C1CSC(c2ccccn2)N1c1cccc(Cl)c1 (stereo not drawn) | inconclusive: 7.38 µM [inhibitor, partial curve, poor fit] | –
52 | COCCN(C(=O)C1CC(=O)N(Cc2ccccc2)C1)c1nc(-c2ccc([N+](=O)[O-])cc2)cs1 (stereo not drawn) | inconclusive: 11.7 µM [inhibitor, single point] | –
53 | Cc1ccc2cc(CCNC(=O)Cc3cccs3)c(=O)[nH]c2c1 | inconclusive: 13.1 µM [inhibitor, single point] | –
54 | CN(CC1CCCN(CCc2ccccc2F)C1)C(=O)c1ccoc1 (stereo not drawn) | inconclusive: 10.4 µM [inhibitor, single point] | –
55 | O=C(CN1C(=O)c2ccccc2S1(=O)=O)NC1CCCCC1 | inconclusive: 8.28 µM [inhibitor, partial curve] | –
56 | Cc1cc(C)n(C2CC(=O)N(c3ccccc3)C2=O)n1 (stereo not drawn) | inconclusive: 0.0093 µM [inhibitor, full curve, poor fit] | –
57 | O=C(NCC(=O)N(Cc1ccco1)C(C(=O)NC1CCCC1)c1cccnc1)c1cccs1 (stereo not drawn) | inconclusive: 10.4 µM [inhibitor, single point] | –
58 | COc1cc(Cl)cc(C=O)c1OCC(=O)O | – | inactive: -1.58%
59 | CN(C(=O)COC(=O)/C=C/c1ccc(C(F)(F)F)cc1)c1c(N)n(Cc2ccccc2)c(=O)[nH]c1=O | inconclusive: 13.1 µM [inhibitor, single point] | –
60 | CCCc1nnc(NC(=O)C2CCCO2)s1 (stereo not drawn) | – | inactive: 15.2%
61 | Cc1occc1C(=O)Nc1cccc([N+](=O)[O-])c1 | – | inactive: 18.5%
62 | O=C(OCC(=O)N1CCN(c2ccccc2)CC1)C1CCCN1S(=O)(=O)c1ccc(Cl)cc1 (stereo not drawn) | – | inactive: 68.3%
63 | CN(CCC1CCOCC1)C(=O)CC1C(=O)NCCN1Cc1c(F)cccc1Cl (stereo not drawn) | inconclusive: 13.1 µM [inhibitor, single point] | –
64 | COc1cc(Nc2nc3ccccc3n3nnnc23)cc(OC)c1OC | inconclusive: 10.4 µM [inhibitor, single point] | –
65 | Cc1cc(C)c(C)c(OCCOCCN2CCOCC2)c1 | inconclusive: 18.5 µM [inhibitor, single point] | –
66 | Cc1ccc(C(=O)N2Cc3ccccc3CC2C(=O)O)cc1 (stereo not drawn) | inconclusive: 14.7 µM [inhibitor, partial curve, poor fit] | –
67 | CCC(C)[C@H](NC(=O)Nc1ccc(C)cc1C)C(=O)O (stereo partly drawn) | – | inactive: 24.7%
68 | O=C1SC(Cc2ccccc2)C(=O)N1c1ccccc1 (stereo not drawn) | – | inactive: 4.98%
69 | CCCCN(CCCC)c1cc(C)nc(-c2ccccc2O)n1 | inconclusive: 18.5 µM [inhibitor, partial curve, poor fit] | –
70 | C#CCOCCOCCOCCNc1nc(N2CCN(C(=O)[C@H](Cc3ccc(O)cc3)n3cc(CCO)nn3)CC2)nc(N2CCN(C(=O)[C@H](Cc3ccc(O)cc3)n3cc(CCO)nn3)CC2)n1 | – | inactive: -22.8%
71 | NC(=S)N/N=C/c1coc2ccc(F)cc2c1=O | – | inactive: -16.9%
72 | CC(C)c1ccc(S(=O)(=O)N2CCN(C(=O)c3cc([N+](=O)[O-])ccc3N3CCOCC3)CC2)cc1 | inconclusive: 10.4 µM [inhibitor, single point] | –
73 | Cn1cccc1CC(=O)N/N=C/c1cc([N+](=O)[O-])ccc1Cl | inconclusive: 0.586 µM [inhibitor, full curve] | –

One compound at a time, as listed above. Order of values: Potency	activity change, negative = inhibition
`CCC(NC(=O)c1ccncc1)c1ccccc1` (stereo not drawn) is entered as active: 14.7 µM	–
`COc1ccc(/C=C(\NC(=O)c2ccc(OCC(C)C)cc2)C(=O)OCc2ccco2)cc1` is entered as inconclusive: 10.4 µM [inhibitor, single point]	–
`CCC(C)[C@H](NC(=O)Nc1ccc(C)cc1C)C(=O)O` (stereo partly drawn) is entered as –	inactive: 24.7%
`CN(C(=O)COC(=O)/C=C/c1ccc(C(F)(F)F)cc1)c1c(N)n(Cc2ccccc2)c(=O)[nH]c1=O` is entered as inconclusive: 13.1 µM [inhibitor, single point]	–
